Results: article PMC8053501 (Diabetes, Metabolic Syndrome and Obesity: Targets and …, 2021)

Experiment: in vivo
Conditions: male, ICR, mouse, po

Work on `CC1=C(C(=O)O)N2C(=O)[C@@H](NC(=O)[C@H](N)c3ccccc3)[C@H]2SC1` [Cephalexin, cephalexin] yielded a Tmax of 1 h and a Tmax (3 mg/kg) of 1 h.
